From publication PMC11140114

Sequences of proteins named here, by UniProt entry; tags and fusion partners are left off.
UniProt O00429: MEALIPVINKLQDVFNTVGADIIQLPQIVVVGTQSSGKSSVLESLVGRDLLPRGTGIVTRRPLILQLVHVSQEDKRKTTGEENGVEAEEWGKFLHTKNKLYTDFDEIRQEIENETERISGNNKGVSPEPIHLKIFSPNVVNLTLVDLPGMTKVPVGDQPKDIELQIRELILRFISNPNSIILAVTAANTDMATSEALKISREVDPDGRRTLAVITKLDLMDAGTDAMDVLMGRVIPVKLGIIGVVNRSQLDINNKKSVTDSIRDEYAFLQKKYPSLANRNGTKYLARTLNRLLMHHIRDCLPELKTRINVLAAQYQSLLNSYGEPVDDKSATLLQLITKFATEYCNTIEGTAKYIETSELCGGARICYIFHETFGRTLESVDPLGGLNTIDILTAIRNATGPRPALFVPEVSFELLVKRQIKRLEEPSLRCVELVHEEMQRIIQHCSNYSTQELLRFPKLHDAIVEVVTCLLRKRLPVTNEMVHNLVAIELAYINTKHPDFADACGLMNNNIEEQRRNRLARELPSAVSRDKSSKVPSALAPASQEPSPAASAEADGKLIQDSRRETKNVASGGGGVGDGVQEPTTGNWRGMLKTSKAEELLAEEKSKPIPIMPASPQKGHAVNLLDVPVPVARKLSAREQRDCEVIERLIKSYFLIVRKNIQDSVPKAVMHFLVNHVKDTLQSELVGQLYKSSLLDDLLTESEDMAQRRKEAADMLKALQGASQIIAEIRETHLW

B1: hydroxysteroid dehydrogenase-like protein 2 (protein, UniProt Q6YN16 1-418)
chain: MLPNTGRLAGCTVFITGASRGIGKAIALKAAKDGANIVIAAKTAQPHPKLLGTIYTAAEEIEAVGGKALPCIVDVRDEQQISAAVEKAIKKFGGIDILVNNASAISLTNTLDTPTKRLDLMMNVNTRGTYLASKACIPYLKKSKVAHILNISPPLNLNPVWFKQHCAYTIAKYGMSMYVLGMAEEFKGEIAVNALWPKTAIHTAAMDMLGGPGIESQCRKVDIIADAAYSIFQKPKSFTGNFVIDENILKEEGIENFDVYAIKPGHPLQPDFFLDEYPEAVSKKVESTGAVPEFKEEKLQLQPKPRSGAVEETFRIVKDSLSDDVVKATQAIYLFELSGEDGGTWFLDLKSKGGNVGYGEPSDQADVVMSMTTDDFVKMFSGKLKPTMAFMSGKLKIKGNMALAIKLEKLMNQMNARL
B2: peroxisomal multifunctional enzyme type 2 (enzyme, UniProt P51659 1-736)
chain: MGSPLRFDGRVVLVTGAGAGLGRAYALAFAERGALVVVNDLGGDFKGVGKGSLAADKVVEEIRRRGGKAVANYDSVEEGEKVVKTALDAFGRIDVVVNNAGILRDRSFARISDEDWDIIHRVHLRGSFQVTRAAWEHMKKQKYGRIIMTSSASGIYGNFGQANYSAAKLGLLGLANSLAIEGRKSNIHCNTIAPNAGSRMTQTVMPEDLVEALKPEYVAPLVLWLCHESCEENGGLFEVGAGWIGKLRWERTLGAIVRQKNHPMTPEAVKANWKKICDFENASKPQSIQESTGSIIEVLSKIDSEGGVSANHTSRATSTATSGFAGAIGQKLPPFSYAYTELEAIMYALGVGASIKDPKDLKFIYEGSSDFSCLPTFGVIIGQKSMMGGGLAEIPGLSINFAKVLHGEQYLELYKPLPRAGKLKCEAVVADVLDKGSGVVIIMDVYSYSEKELICHNQFSLFLVGSGGFGGKRTSDKVKVAVAIPNRPPDAVLTDTTSLNQAALYRLSGDWNPLHIDPNFASLAGFDKPILHGLCTFGFSARRVLQQFADNDVSRFKAIKARFAKPVYPGQTLQTEMWKEGNRIHFQTKVQETGDIVISNAYVDLAPTSGTSAKTPSEGGKLQSTFVFEEIGRRLKDIGPEVVKKVNAVFEWHITKGGNIGAKWTIDLKSGSGKVYQGPAKGAADTTIILSDEDFMEVVLGKLDPQKAFFSGRLKARGNIMLSQKLQMILKDYAKL
B3: CDGSH iron-sulfur domain-containing protein 1 (protein, UniProt Q9NZ45 1-108)
chain: MSLTSSSSVRVEWIAAVTIAAGTAAIGYLAYKRFYVKDHRNKAMINLHIQKDNPKIVHAFDMEDLGDKAVYCRCWRSKKFPFCDGAHTKHNEETGDNVGPLIIKKKET

What follows are binders tested against endogenous Drp1 (human (endogenous in HEK293, HeLa, U2OS)) (UniProt O00429) (assay: affinity purification with mass spectrometry; proteins enriched together with endogenous Drp1 on the D7 and D63 nanotraps against GFP-Trap, soluble protein fraction of HEK293 cells; multi-volcano analysis, class A FDR 0.01, class B FDR 0.05).

Binder	binding
B1	binds
B2	binds
B3	binds

Results are given in words; binding and its absence hold for the method and conditions named. Binding seen in cells or lysates may run through a third protein. Here binding means that the protein was enriched with, or labelled near, the bait; the list need not be complete.
